Assay results published in doi:10.1101/597153.
Positions count from the first letter of the chain named. Results are given in words; binding and its absence hold for the method and conditions named. In cells and extracts the contact can be indirect. Some entries that bind do so weakly or less than the wild type. Tags and fused reporters may be left off the sequences shown.

Chains of the proteins cited; added tags and fusions are not shown.
UniProt Q12778: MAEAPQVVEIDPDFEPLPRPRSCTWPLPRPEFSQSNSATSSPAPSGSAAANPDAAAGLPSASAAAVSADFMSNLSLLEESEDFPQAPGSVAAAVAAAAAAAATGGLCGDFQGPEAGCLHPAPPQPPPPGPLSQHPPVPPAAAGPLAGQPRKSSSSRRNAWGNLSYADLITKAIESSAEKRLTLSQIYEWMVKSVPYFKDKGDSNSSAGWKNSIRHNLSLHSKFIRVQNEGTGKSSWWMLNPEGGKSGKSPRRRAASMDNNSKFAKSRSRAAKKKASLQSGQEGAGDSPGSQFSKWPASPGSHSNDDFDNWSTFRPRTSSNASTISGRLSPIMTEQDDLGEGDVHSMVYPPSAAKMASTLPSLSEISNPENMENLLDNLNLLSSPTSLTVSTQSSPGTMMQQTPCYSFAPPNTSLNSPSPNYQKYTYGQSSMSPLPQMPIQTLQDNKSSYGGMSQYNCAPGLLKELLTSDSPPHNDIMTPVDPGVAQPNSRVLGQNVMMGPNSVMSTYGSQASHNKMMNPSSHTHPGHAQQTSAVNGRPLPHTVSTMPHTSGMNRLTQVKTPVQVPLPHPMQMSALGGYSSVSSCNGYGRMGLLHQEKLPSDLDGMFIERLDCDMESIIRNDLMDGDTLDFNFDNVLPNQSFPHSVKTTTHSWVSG

What was measured:
FLAG-SIRT1-WT (mouse) = biological target: T1, FLAG-SIRT1-WT (mouse) (UniProt Q923E4); test: co-IP
T1 sequence: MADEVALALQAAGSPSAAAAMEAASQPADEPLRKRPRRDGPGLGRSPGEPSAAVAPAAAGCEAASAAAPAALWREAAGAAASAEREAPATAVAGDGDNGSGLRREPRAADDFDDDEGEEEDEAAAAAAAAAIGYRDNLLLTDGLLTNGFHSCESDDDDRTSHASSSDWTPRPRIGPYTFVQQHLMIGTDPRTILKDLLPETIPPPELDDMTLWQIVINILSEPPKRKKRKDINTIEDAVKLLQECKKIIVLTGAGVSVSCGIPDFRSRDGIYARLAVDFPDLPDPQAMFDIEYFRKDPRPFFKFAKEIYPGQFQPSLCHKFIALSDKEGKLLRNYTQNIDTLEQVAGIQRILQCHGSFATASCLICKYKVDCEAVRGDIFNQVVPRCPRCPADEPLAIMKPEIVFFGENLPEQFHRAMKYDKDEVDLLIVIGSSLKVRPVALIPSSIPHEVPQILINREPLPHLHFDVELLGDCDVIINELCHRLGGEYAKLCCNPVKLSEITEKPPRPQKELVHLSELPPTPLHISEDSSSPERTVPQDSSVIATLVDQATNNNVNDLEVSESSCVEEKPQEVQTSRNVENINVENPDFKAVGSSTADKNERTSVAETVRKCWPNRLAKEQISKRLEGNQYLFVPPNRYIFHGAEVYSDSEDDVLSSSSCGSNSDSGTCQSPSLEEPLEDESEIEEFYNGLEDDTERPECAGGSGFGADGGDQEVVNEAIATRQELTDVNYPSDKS

FLAG-SIRT1-mutE2 (mouse) = biological target: T2, FLAG-SIRT1-mutE2 (mouse) (UniProt Q923E4); test: co-IP
T2 sequence: T1 sequence with T160A, S161A

Substance: FOXO1 (from UniProt Q12778 1-655)
- binding (FLAG-SIRT1-WT (mouse)): binds
- binding (FLAG-SIRT1-mutE2 (mouse)): binds
